Experimental data: PMC4858180
These are yes or no findings as the source states them, for the method shown. In cells and extracts the contact can be indirect. Binding calls can cover weak binding; strength is not graded here.

Protein sequences, listed by entry. Tags and fused reporters are not part of them. Lines headed by an entry give the natural chain unless they say otherwise; changes in a name come on top. Residues count along the entry.
UniProt O08689: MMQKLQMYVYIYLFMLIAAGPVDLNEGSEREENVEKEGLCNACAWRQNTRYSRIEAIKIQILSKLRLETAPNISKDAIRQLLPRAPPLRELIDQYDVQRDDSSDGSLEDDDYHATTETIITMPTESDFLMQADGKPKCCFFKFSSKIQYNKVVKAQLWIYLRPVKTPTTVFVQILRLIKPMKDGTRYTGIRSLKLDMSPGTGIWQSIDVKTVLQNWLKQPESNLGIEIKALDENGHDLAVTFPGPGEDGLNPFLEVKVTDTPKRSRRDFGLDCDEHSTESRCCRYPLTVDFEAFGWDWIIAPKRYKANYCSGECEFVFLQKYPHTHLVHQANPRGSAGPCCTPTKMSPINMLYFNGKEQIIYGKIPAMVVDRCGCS
UniProt Q8N2S1, residues 28-1624: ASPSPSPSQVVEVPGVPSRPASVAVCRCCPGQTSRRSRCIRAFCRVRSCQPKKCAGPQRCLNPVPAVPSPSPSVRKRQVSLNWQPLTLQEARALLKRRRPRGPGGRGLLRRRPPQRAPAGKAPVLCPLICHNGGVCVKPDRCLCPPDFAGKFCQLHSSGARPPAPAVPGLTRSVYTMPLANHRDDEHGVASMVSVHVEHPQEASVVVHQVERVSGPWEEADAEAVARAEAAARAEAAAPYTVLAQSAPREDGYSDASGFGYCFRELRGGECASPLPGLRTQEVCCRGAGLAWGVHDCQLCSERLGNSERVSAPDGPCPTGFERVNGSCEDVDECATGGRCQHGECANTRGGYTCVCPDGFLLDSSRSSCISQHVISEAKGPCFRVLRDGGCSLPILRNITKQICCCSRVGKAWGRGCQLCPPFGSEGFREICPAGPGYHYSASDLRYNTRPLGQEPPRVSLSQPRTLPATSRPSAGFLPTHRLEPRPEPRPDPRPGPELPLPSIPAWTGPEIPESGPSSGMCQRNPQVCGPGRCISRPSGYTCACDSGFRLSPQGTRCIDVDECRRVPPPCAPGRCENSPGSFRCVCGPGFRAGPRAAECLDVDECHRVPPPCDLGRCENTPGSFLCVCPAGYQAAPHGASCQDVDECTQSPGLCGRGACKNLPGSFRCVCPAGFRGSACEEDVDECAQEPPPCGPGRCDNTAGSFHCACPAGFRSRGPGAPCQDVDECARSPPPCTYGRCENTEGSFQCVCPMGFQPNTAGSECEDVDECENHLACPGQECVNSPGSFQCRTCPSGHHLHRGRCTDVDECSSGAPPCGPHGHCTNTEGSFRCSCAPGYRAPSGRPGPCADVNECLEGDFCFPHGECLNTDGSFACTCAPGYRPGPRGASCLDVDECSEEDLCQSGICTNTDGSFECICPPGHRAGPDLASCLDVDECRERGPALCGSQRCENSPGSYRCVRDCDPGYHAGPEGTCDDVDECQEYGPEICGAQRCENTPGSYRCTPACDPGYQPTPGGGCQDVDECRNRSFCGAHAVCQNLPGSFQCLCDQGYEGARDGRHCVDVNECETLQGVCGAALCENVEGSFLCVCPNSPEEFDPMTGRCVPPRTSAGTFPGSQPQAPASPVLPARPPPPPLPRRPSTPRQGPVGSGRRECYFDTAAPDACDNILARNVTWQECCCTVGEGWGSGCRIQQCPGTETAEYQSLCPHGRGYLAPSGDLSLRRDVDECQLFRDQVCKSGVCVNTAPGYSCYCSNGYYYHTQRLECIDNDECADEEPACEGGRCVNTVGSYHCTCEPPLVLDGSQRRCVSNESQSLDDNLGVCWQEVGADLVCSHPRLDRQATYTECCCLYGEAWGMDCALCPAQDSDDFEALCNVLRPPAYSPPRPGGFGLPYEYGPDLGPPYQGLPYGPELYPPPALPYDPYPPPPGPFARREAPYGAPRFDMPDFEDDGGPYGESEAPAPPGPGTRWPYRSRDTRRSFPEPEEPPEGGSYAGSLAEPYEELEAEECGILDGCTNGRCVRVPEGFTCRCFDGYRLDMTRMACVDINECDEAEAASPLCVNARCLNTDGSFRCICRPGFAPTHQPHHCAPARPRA
UniProt Q8K4G1, residues 25-1666: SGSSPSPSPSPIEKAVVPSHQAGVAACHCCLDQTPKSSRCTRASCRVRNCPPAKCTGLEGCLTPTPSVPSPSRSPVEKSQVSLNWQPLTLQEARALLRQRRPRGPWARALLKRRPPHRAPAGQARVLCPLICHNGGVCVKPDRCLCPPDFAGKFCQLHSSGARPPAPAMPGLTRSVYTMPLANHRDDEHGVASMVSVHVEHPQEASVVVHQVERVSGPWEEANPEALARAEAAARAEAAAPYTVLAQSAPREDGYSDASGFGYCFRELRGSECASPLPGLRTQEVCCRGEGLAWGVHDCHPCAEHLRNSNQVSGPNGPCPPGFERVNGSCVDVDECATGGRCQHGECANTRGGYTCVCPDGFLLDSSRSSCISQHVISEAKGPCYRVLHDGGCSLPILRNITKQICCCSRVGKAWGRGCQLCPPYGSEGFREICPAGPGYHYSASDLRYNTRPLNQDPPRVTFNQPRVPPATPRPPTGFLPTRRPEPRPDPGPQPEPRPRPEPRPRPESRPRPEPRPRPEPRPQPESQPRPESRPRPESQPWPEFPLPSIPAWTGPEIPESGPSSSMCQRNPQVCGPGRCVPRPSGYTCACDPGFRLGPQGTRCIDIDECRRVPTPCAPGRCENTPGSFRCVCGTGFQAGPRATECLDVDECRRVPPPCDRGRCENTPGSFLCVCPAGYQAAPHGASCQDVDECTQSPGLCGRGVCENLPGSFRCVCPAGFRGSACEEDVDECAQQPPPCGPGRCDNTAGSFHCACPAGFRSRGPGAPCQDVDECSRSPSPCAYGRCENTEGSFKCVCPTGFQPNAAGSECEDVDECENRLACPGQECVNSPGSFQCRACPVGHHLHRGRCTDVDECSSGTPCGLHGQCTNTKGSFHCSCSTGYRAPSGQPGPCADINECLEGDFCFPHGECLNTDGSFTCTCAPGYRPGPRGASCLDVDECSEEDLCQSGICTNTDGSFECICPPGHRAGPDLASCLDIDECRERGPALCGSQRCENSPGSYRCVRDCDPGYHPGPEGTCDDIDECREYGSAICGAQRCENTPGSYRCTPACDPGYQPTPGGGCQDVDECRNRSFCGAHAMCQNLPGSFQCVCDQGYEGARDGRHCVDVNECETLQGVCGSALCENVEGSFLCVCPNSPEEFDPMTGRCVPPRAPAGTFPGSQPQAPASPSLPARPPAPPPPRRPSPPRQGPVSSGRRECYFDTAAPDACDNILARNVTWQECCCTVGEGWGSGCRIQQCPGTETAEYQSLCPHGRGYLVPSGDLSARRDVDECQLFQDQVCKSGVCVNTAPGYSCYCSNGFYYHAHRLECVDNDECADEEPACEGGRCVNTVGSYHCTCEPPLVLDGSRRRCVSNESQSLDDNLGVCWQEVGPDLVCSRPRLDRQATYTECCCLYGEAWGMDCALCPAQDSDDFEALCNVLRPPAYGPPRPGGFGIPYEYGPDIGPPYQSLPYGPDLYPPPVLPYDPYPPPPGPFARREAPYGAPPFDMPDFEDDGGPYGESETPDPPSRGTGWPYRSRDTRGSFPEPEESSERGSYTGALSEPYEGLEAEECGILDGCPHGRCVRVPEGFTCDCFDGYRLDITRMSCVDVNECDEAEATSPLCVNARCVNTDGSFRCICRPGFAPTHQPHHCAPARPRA
UniProt O14793: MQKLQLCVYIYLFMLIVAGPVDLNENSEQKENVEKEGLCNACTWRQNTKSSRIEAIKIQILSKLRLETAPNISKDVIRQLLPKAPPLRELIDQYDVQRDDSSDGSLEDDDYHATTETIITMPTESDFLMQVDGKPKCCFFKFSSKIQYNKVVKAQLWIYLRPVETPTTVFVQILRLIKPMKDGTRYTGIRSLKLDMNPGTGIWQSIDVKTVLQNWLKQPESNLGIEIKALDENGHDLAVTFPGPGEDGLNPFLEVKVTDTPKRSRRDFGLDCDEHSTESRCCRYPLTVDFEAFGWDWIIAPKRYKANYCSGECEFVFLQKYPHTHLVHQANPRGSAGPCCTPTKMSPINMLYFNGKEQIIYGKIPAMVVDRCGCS

What was measured:
[1] = biological target: myostatin (endogenous, mouse skeletal muscle) (mouse (endogenous in muscle)) (UniProt O08689); experiment: co-IP; mouse muscle lysates (combined limb muscles of 10 week old wildtype and TG+ mice), 1 mg lysate; immunoprecipitated with anti-myostatin antibody (EMD Millipore AB3239-I), immunoblotted with anti-LTBP4; control without precipitating antibody; 4°C
[2] = biological target: full length human LTBP4 with amino-terminal Xpress tag (human) (UniProt Q8N2S1); experiment: co-IP; lysates of co-transfected HEK293T cells (150 mM NaCl, 50 mM Tris HCl pH 8, 0.1% Triton X-100), 500 μg lysate; immunoprecipitated with anti-LTBP4 antibody, immunoblotted with anti-myc; control without precipitating antibody; 4°C

In the case of “LTBP4 (endogenous, wildtype mouse skeletal muscle) (from UniProt Q8K4G1 25-1666)”, the binding [1] is reported as “binds”.

For “mouse LTBP4 transgene product (HSA-LTBP4, protective allele) with carboxy-terminal Xpress tag, in TG+ muscle (from UniProt Q8K4G1 25-1666)”, the binding [1] was “binds”.

In the case of “human myostatin with carboxy-terminal Myc tag (from UniProt O14793)”, the binding [2] is reported as “binds”.
